Measurements reported in PubChem BioAssay AID493246 (Drosophila RNAi Screening Center, 2011)
Aim: 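Identify essential fly genes by loss of cell viability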 (primary screen). Cells: Drosophila Kc and S2R+ cells. Reagent: long dsRNA against Drosophila genes. Measured: 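Raw, unnormalised count of remaining cells in each well; per-plate z-scores of cell number underlie the calls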. Direction: Kc cell number and S2R+ cell number: higher = more cells remaining. Rule for the call: 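Active when the per-plate z-score of cell number is 3 or more in the direction of fewer cells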.
The deposit covers about 21,000 reagents; below is an unselected part of those with a known target gene and a result. In the full data, 429 (2%) got an active call. 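Values are raw and not normalised between plates; calls rest on per-plate z-scores that were not deposited.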 Entries without a mark were called inactive. Reagents against one gene are numbered here. Not stated in the record: the amount of reagent, the time to read-out.

The first 3 records, ahead of the listing:
predicted target | reagent no. | Kc cell number, rep 1 | Kc cell number, rep 2 | S2R+ cell number, rep 1 | S2R+ cell number, rep 2
Kots | 1 | 1.54e6 | 1.56e6 | 1.20e6 | 1.23e6
Cyfip | 1 | 1.45e6 | 1.48e6 | 1.30e6 | 1.41e6
CG1701 | 1 | 1.70e6 | 1.71e6 | 1.41e6 | 1.59e6

The list itself, from the start:
predicted target | reagent no. | Kc cell number, rep 1 | Kc cell number, rep 2 | S2R+ cell number, rep 1 | S2R+ cell number, rep 2
Kots | 1 | 1.54e6 | 1.56e6 | 1.20e6 | 1.23e6
Cyfip | 1 | 1.45e6 | 1.48e6 | 1.30e6 | 1.41e6
CG1701 | 1 | 1.70e6 | 1.71e6 | 1.41e6 | 1.59e6
tbc | 1 | 1.45e6 | 1.51e6 | 8.59e5 | 9.48e5
CG12863 | 1 | 1.57e6 | 1.59e6 | 1.18e6 | 1.30e6
CG1578 | 1 | 6.11e5 | – | 7.99e5 | –
CG30095 | 1 | 1.45e6 | 1.58e6 | 1.10e6 | 1.21e6
Yod1 | 1 | 1.76e6 | 1.74e6 | 1.38e6 | 1.36e6
CG42565 | 1 | 1.60e6 | 1.66e6 | 1.38e6 | 1.40e6
CG2972 | 1 | 6.18e5 | – | 9.28e5 | –
sei | 1 | 1.31e6 | 1.32e6 | 1.11e6 | 1.17e6
MCU | 1 | 1.49e6 | 1.32e6 | 1.19e6 | 1.20e6
spidey | 1 | 1.52e6 | 1.50e6 | 9.92e5 | 1.20e6
noc | 1 | 1.29e6 | 1.33e6 | 1.33e6 | 1.32e6
CG34434 | 1 | 1.52e6 | 1.52e6 | 1.06e6 | 1.23e6
CG15362 | 1 | 1.48e6 | 1.53e6 | 1.06e6 | 1.22e6
CG13359 | 1 | 1.48e6 | 1.43e6 | 1.00e6 | 1.08e6
Burs | 1 | 1.27e6 | 1.30e6 | 1.09e6 | 1.14e6
Rpn9 | 1 | 1.31e6 | 1.42e6 | 1.10e6 | 1.22e6
CG30340 | 1 | 1.47e6 | 1.50e6 | 9.11e5 | 1.07e6
CG15406 | 1 | 1.57e6 | 1.56e6 | 1.08e6 | 1.23e6
MnM | 1 | 1.49e6 | 1.48e6 | 1.05e6 | 1.21e6
Smyd5 | 1 | 1.39e6 | 1.41e6 | 9.74e5 | 1.10e6
CG30486 | 1 | 1.56e6 | 1.62e6 | 1.35e6 | 1.44e6
Taf5 | 1 | 1.63e6 | 1.59e6 | 1.08e6 | 1.10e6
e(y)3 | 1 | 1.65e6 | 1.72e6 | 9.96e5 | 1.13e6
CG33233 | 1 | 1.23e6 | 1.29e6 | 1.07e6 | 1.25e6
CG33784 | 1 | 1.38e6 | 1.50e6 | 1.05e6 | 1.22e6
Remo | 1 | 1.83e6 | 1.74e6 | 1.09e6 | 1.18e6
CG31915 | 1 | 1.47e6 | 1.40e6 | 1.15e6 | 1.32e6
Smu1 | 1 | 1.47e6 | 1.54e6 | 1.11e6 | 1.20e6
CG31546 | 1 | 1.43e6 | 1.51e6 | 1.19e6 | 1.29e6
CG11345 | 1 | 1.66e6 | 1.72e6 | 1.20e6 | 1.27e6
fig | 1 | 1.79e6 | 1.80e6 | 1.08e6 | 1.24e6
CG10466 | 1 | 1.64e6 | 1.65e6 | 1.24e6 | 2.68e5
dnd | 1 | 1.36e6 | 1.45e6 | 1.02e6 | 1.07e6
E(bx) | 1 | 1.37e6 | 1.36e6 | 1.01e6 | 1.35e6
E(bx) | 2 | 1.65e6 | 1.67e6 | 9.91e5 | 1.46e6
E(bx) | 3 | 1.54e6 | 1.60e6 | 1.23e6 | 1.31e6
CG33253 | 1 | 1.68e6 | 1.68e6 | 1.14e6 | 1.28e6
CG33253 | 2 | 1.78e6 | 1.56e6 | 1.07e6 | 1.25e6
